Test results reported in PMC9358705.
Results are given in words; binding and its absence hold for the method and conditions named. Binding seen in cells or lysates may run through a third protein. Some entries that bind do so weakly or less than the wild type.

By UniProt entry, the sequences of proteins in these tests, tags left out.
UniProt P21333: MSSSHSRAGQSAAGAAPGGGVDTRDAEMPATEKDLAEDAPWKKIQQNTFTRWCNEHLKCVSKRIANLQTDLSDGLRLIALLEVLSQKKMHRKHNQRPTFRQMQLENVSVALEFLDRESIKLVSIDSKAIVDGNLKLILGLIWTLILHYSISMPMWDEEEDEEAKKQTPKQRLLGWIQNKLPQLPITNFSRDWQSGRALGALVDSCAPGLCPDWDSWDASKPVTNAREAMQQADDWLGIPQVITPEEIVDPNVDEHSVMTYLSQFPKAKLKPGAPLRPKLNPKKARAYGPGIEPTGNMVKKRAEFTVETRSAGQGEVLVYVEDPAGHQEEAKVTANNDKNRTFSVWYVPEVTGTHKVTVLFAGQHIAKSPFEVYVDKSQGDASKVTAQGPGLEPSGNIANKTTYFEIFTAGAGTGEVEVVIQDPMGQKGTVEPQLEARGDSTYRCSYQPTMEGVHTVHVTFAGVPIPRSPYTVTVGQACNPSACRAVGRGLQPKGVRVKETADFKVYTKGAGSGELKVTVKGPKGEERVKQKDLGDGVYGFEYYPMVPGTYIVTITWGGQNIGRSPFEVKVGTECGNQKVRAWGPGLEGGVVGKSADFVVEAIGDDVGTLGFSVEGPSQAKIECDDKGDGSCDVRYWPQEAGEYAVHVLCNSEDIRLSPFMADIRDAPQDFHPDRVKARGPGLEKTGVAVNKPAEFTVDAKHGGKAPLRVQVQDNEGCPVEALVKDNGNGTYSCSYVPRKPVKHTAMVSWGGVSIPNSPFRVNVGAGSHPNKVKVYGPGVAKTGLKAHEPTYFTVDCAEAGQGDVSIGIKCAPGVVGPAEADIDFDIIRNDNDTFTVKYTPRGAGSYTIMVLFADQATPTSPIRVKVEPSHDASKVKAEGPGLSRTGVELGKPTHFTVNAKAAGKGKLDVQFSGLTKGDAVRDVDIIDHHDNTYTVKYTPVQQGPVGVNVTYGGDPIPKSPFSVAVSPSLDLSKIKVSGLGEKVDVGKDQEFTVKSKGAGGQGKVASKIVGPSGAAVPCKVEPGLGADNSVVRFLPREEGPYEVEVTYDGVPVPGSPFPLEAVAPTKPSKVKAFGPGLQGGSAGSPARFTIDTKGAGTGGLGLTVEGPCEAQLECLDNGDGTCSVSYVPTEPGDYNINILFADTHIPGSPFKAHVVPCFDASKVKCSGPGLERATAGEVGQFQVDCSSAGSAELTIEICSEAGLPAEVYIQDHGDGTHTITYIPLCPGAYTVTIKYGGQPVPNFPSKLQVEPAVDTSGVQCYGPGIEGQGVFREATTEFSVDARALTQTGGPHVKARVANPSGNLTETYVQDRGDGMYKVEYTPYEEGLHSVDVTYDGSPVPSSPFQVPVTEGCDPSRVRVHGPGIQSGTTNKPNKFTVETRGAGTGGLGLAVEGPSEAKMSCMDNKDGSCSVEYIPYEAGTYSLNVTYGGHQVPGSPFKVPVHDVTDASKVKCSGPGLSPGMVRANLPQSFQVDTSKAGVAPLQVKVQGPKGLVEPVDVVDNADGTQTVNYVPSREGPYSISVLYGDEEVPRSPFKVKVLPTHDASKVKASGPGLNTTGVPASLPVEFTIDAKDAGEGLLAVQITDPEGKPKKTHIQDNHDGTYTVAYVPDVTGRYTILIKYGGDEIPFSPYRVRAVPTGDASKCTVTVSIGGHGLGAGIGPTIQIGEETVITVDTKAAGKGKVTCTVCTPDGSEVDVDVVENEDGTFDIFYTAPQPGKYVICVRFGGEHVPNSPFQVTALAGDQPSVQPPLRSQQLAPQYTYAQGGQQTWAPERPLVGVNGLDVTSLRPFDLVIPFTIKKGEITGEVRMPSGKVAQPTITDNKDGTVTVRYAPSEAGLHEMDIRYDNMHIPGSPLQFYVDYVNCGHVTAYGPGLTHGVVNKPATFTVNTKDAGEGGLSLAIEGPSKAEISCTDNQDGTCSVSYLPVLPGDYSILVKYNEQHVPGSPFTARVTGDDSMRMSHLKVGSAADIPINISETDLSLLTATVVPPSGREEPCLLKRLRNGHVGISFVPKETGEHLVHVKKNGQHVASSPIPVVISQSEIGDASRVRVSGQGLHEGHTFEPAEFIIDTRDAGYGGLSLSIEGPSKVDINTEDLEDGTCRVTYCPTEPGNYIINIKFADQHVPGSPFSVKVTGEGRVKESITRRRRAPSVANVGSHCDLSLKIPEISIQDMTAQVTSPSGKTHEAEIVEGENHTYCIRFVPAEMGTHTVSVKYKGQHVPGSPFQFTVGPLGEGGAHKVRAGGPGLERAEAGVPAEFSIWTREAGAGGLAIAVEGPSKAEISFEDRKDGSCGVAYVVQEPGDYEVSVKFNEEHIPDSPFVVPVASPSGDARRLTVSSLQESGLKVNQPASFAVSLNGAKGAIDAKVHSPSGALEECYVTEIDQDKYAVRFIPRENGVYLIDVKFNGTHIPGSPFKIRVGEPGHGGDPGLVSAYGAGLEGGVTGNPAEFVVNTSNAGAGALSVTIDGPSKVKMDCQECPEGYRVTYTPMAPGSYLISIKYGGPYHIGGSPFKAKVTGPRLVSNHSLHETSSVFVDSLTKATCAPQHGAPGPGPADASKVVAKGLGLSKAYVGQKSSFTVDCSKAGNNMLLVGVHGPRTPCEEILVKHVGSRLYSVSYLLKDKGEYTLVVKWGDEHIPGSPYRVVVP

Molecular target: T1, Semaphorin 3d (human (endogenous in PLC/PRF/5; cDNA of the lentiviral construct in HCCLM3 not stated)) (UniProt O95025)
T1 sequence: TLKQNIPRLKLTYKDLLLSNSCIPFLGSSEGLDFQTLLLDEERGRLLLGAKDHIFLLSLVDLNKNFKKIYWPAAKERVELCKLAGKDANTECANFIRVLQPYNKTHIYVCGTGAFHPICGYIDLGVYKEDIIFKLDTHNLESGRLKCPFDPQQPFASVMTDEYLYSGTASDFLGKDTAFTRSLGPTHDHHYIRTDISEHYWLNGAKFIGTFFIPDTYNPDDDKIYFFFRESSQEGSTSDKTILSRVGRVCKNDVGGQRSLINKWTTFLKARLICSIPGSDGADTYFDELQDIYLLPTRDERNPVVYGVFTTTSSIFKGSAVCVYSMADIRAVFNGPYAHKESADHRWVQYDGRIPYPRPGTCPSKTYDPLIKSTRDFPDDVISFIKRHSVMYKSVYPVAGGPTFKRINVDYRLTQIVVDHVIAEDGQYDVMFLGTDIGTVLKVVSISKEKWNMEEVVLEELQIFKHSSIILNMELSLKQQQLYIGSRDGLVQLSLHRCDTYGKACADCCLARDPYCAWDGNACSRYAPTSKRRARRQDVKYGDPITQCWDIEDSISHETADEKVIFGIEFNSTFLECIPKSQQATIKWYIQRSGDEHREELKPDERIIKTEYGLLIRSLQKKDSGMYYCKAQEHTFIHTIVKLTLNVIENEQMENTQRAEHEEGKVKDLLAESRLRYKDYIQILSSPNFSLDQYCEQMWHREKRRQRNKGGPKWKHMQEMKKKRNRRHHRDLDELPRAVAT
Experiment: co-IP; co-IP of Sema3d and FLNA in HCC cells, detected by blot (Figure 5B); details in the Supplementary Materials and Methods

## filamin-A (from UniProt P21333 1-2647)
  binding: binds
